Assay results reported in patent publication KR20220001106A.
Results are given in words; binding and its absence hold for the method and conditions named. Some binding calls cover weakened binding; strength is not graded here.

Amino acid sequences for entries named in this document (tags omitted). A change or cut given only in a name is not applied to a line headed by its entry. Chains listed by the source or under a name are the forms on record and can include a tag or linker. Residues count along the entry.
UniProt P55899: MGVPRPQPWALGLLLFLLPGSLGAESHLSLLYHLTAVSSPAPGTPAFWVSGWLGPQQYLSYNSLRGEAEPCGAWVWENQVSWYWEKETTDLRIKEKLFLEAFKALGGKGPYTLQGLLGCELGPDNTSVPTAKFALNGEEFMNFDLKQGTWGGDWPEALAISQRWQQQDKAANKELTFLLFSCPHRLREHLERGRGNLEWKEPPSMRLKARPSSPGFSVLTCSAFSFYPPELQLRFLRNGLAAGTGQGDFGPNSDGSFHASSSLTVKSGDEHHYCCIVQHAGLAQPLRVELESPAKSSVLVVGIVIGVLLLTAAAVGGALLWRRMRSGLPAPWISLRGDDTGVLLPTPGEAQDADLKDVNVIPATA
UniProt P12314, residues 16-288: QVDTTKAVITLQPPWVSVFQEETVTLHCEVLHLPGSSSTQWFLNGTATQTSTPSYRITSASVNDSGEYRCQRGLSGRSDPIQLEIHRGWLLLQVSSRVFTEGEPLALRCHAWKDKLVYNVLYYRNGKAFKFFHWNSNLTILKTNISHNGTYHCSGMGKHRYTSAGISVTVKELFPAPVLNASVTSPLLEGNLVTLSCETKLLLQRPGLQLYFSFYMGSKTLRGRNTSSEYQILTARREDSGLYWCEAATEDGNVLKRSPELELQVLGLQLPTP
hVEGF (P15692, form named): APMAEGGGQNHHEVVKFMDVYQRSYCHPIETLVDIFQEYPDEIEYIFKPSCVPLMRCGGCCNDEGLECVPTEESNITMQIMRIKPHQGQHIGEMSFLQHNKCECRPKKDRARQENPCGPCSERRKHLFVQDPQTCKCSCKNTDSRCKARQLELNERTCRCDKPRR

B1: Hz2-F (antibody with SEQ ID NO 32 and SEQ ID NO 31) (antibody, human IgG1, L234A L235A, V domains shown)
VH: EVQLVESGGGLVQPGGSLRLSCAVSGIDLNRYSLTWIRQAPGKGLEWVAIVGGSGVTYYANWAKGRFTISRDDSKNTLYLQMNSLRAEDTAVYYCARGSDRSAYAPDIWGQGTLVTVSS
VL: DIQLTQSPSSLSASVGDRVTITCQSSQSIYSNNYLAWYQQKPGKAPKLLLYQASKLASGVPSRFSGSGSGTDFTLTISSLQPEDFATYYCLGVYDDDADNAFGQGTKVEIKR
B2: Hz1 (humanized antibody made with SEQ ID NO 28 and SEQ ID NO 29) (antibody, V domains shown)
VH: EVQLVESGGGLVKPGGSLRLSCAASGIDLNRYSLTWVRQAPGKGLEWVGIVGGSGVTYYANWAKGRFTISRDSAKNSLYLQMNSLRAEDTAVYFCARGSDRSAYAPDIWGPGTLVTVSS
VL: DIQMTQSPSSLSASVGDRVTINCQSSQSIYSNNYLAWYQQKPGKPPKLLLYQASKLASGVPSRFSGSGSGTDFTLTISSLQPEDVATYYCLGVYDDDADNAFGGGTELEIKR
B3: RIgG1 (rabbit antibody made with SEQ ID NO 24 and SEQ ID NO 25) (antibody, V domains shown)
VH: QSVEESGGRLVTPGTPLTLTCTVSGIDLNRYSLTWVRQAPGKGLEWIGIVGGSGVTYYANWTKGRFTISKTSTTVDLKMTSLTTEDTATYFCARGSDRSAYAPDIWGPGTLVTISS
VL: ELDMTQTPSSVSAAVGGTVTINCQSSQSVYSNNYLAWYQQKPGQPPKLLLYQASKLASGVSSRFSGSGSGTHFTLTISGVQCDDAATYYCLGVYDDDADNAFGGGTELEILR

What was measured:
[1] = molecular target: FcRn (R&D system, 8639-Fc) (UniProt P55899); experiment: Octet BLI, antibody on FAB2G sensor, FcRn 400 nM as analyte, pH 6.0
[2] = molecular target: FcγRⅠ (R&D system, 1257-Fc) (UniProt P12314); experiment: Octet BLI, receptor on anti-penta-His sensor, antibody 100 nM as analyte
hVEGF (human) = hVEGF (human) (UniProt P15692); experiment: ELISA, hVEGF coated at 500 ng/ml, anti-hIgG-Fc HRP detection

| Binder | binding [1] | binding [2] | binding (hVEGF (human)) |
| --- | --- | --- | --- |
| B1 | binds | binds |  |
| B2 |  |  | binds |
| B3 |  |  | binds |
